# Earlier results, collected in US20210379204A1, “METHOD FOR CALCULATING TOLERANCE DOSE OF HUMAN BODY TO SUGAR ALCOHOL AND FUNCTIONAL SUGAR” (Zhejiang Huakang Pharmaceutical Co., Ltd., priority 2018, published 2021).
# Some entries share one result that the patent states for a list of compounds.
# Conditions: human daily intake, declared by some companies, no experimental data; cited from earlier work
smiles,measurement,value
OC[C@@H](O)[C@@H](O)[C@H](O)[C@@H](O)CO [sorbitol],daily intake should not exceed,≤ 50 g
